{"sequences": {"note": "Amino acid sequences for entries named in this document (tags omitted).", "UniProt Q61188, whole entry": "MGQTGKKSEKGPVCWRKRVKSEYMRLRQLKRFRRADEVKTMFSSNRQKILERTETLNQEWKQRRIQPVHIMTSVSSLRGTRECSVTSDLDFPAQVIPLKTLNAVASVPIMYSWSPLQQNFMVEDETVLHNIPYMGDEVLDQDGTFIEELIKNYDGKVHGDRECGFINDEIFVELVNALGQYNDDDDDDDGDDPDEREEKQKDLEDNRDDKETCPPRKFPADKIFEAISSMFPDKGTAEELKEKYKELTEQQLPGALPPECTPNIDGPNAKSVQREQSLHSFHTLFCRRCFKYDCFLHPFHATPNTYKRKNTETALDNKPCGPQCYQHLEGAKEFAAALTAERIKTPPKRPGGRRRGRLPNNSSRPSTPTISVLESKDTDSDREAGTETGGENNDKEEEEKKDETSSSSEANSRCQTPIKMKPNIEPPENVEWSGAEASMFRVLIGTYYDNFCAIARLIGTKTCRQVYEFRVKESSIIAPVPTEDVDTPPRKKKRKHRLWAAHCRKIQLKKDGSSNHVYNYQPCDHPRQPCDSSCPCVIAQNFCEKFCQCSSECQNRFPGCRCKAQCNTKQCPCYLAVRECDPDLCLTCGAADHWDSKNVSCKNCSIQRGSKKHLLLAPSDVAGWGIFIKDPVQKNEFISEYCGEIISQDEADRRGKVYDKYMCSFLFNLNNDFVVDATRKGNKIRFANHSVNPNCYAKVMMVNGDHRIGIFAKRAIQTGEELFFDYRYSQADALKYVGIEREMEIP"}, "source": "ChEMBL document CHEMBL5674883", "about": "“The Heterochromatin Landscape in Migrating Cells and the Importance of H3K27me3 for Associated Transcriptome Alterations” (Cells, 2018)", "format_in_all_cases": "cell-based", "key": {"[1]": {"target": "T1, RNA polymerase II (Mus musculus) (UniProt P08775+Q8CFI7+P97760+A0A3Q4L2S8+Q80UW8+P61219+P62488+Q923G2+P60898+O08740+Q63871+P62876)", "test": "Inhibition of RNA polymerase II in mouse B16-F1 migrating cells assessed as fold change in Galnt7-RNA stability at 0.1 mM measured by ChIP-seq analysis relative to control cells"}, "[2]": {"target": "T1, RNA polymerase II (Mus musculus)", "test": "Inhibition of RNA polymerase II in mouse B16-F1 migrating cells assessed as fold change in Utp14b-RNA stability at 0.1 mM measured by ChIP-seq analysis relative to control cells"}, "[3]": {"target": "T1, RNA polymerase II (Mus musculus)", "test": "Inhibition of RNA polymerase II in mouse B16-F1 migrating cells assessed as fold change in Dctpp1-RNA stability at 0.1 mM measured by ChIP-seq analysis relative to control cells"}, "[4]": {"target": "T1, RNA polymerase II (Mus musculus)", "test": "Inhibition of RNA polymerase II in mouse B16-F1 migrating cells assessed as fold change in Gtse1-RNA stability at 0.1 mM measured by ChIP-seq analysis relative to control cells"}, "[5]": {"target": "T1, RNA polymerase II (Mus musculus)", "test": "Inhibition of RNA polymerase II in mouse B16-F1 migrating cells assessed as fold change in Pim3-RNA stability at 0.1 mM measured by ChIP-seq analysis relative to control cells"}, "[6]": {"target": "T1, RNA polymerase II (Mus musculus)", "test": "Inhibition of RNA polymerase II in mouse B16-F1 migrating cells assessed as fold change in Zfp217-RNA stability at 0.1 mM measured by ChIP-seq analysis relative to control cells"}, "[7]": {"target": "T1, RNA polymerase II (Mus musculus)", "test": "Inhibition of RNA polymerase II in mouse B16-F1 migrating cells assessed as fold change in Cd9-RNA stability at 0.1 mM measured by ChIP-seq analysis relative to control cells"}, "[8]": {"target": "T1, RNA polymerase II (Mus musculus)", "test": "Inhibition of RNA polymerase II in mouse B16-F1 migrating cells assessed as fold change in Ndufb10-RNA stability at 0.1 mM measured by ChIP-seq analysis relative to control cells"}, "[9]": {"target": "T1, RNA polymerase II (Mus musculus)", "test": "Inhibition of RNA polymerase II in mouse B16-F1 migrating cells assessed as fold change in Krtcap2-RNA stability at 0.1 mM measured by ChIP-seq analysis relative to control cells"}, "[10]": {"target": "T1, RNA polymerase II (Mus musculus)", "test": "Inhibition of RNA polymerase II in mouse B16-F1 migrating cells assessed as fold change in Avpi1-RNA stability at 0.1 mM measured by ChIP-seq analysis relative to control cells"}, "[11]": {"target": "T1, RNA polymerase II (Mus musculus)", "test": "Inhibition of RNA polymerase II in mouse B16-F1 migrating cells assessed as fold change in Rabep1-RNA stability at 0.1 mM measured by ChIP-seq analysis relative to control cells"}, "[12]": {"target": "T1, RNA polymerase II (Mus musculus)", "test": "Inhibition of RNA polymerase II in mouse B16-F1 migrating cells assessed as fold change in Mrpl28-RNA stability at 0.1 mM measured by ChIP-seq analysis relative to control cells"}, "[13]": {"target": "T1, RNA polymerase II (Mus musculus)", "test": "Inhibition of RNA polymerase II in mouse B16-F1 migrating cells assessed as fold change in Car9-RNA stability at 0.1 mM measured by ChIP-seq analysis relative to control cells"}, "[14]": {"target": "T1, RNA polymerase II (Mus musculus)", "test": "Inhibition of RNA polymerase II in mouse B16-F1 migrating cells assessed as fold change in Rtl8b-RNA stability at 0.1 mM measured by ChIP-seq analysis relative to control cells"}, "[15]": {"target": "T1, RNA polymerase II (Mus musculus)", "test": "Inhibition of RNA polymerase II in mouse B16-F1 migrating cells assessed as fold change in Tex264-RNA stability at 0.1 mM measured by ChIP-seq analysis relative to control cells"}, "[16]": {"target": "T1, RNA polymerase II (Mus musculus)", "test": "Inhibition of RNA polymerase II in mouse B16-F1 migrating cells assessed as fold change in Pik3c2a-RNA stability at 0.1 mM measured by ChIP-seq analysis relative to control cells"}, "[17]": {"target": "Histone-lysine N-methyltransferase EZH2 (Mus musculus) (UniProt Q61188)", "test": "Inhibition of EZH2 in mouse B16-F1 migrating cells assessed as fold change in H3K27me3-buffered regulated Ckap2-mRNA expression at 3 uM measured by ChIP-seq analysis relative to control cells"}, "[18]": {"target": "Histone-lysine N-methyltransferase EZH2 (Mus musculus) (UniProt Q61188)", "test": "Inhibition of EZH2 in mouse B16-F1 migrating cells assessed as fold change in H3K27me3-dependent regulated Vasn-mRNA expression at 3 uM measured by ChIP-seq analysis relative to control cells"}, "[19]": {"target": "Histone-lysine N-methyltransferase EZH2 (Mus musculus) (UniProt Q61188)", "test": "Inhibition of EZH2 in mouse B16-F1 migrating cells assessed as fold change in H3K27me3-buffered regulated Ehd1-mRNA expression at 3 uM measured by ChIP-seq analysis relative to control cells"}, "[20]": {"target": "Histone-lysine N-methyltransferase EZH2 (Mus musculus) (UniProt Q61188)", "test": "Inhibition of EZH2 in mouse B16-F1 migrating cells assessed as fold change in H3K27me3-buffered regulated Tubb2b-mRNA expression at 3 uM measured by ChIP-seq analysis relative to control cells"}, "[21]": {"target": "Histone-lysine N-methyltransferase EZH2 (Mus musculus) (UniProt Q61188)", "test": "Inhibition of EZH2 in mouse B16-F1 migrating cells assessed as fold change in H3K27me3-buffered regulated Dlg3-mRNA expression at 3 uM measured by ChIP-seq analysis relative to control cells"}, "[22]": {"target": "Histone-lysine N-methyltransferase EZH2 (Mus musculus) (UniProt Q61188)", "test": "Inhibition of EZH2 in mouse B16-F1 migrating cells assessed as fold change in H3K27me3-buffered regulated Mis18a-mRNA expression at 3 uM measured by ChIP-seq analysis relative to control cells"}, "[23]": {"target": "Histone-lysine N-methyltransferase EZH2 (Mus musculus) (UniProt Q61188)", "test": "Inhibition of EZH2 in mouse B16-F1 migrating cells assessed as fold change in H3K27me3-buffered regulated Enox1-mRNA expression at 3 uM measured by ChIP-seq analysis relative to control cells"}, "[24]": {"target": "Histone-lysine N-methyltransferase EZH2 (Mus musculus) (UniProt Q61188)", "test": "Inhibition of EZH2 in mouse B16-F1 migrating cells assessed as fold change in H3K27me3-independent regulated Kdm3a-mRNA expression at 3 uM measured by ChIP-seq analysis relative to control cells"}, "[25]": {"target": "Histone-lysine N-methyltransferase EZH2 (Mus musculus) (UniProt Q61188)", "test": "Inhibition of EZH2 in mouse B16-F1 migrating cells assessed as fold change in H3K27me3-dependent regulated Ier5l-mRNA expression at 3 uM measured by ChIP-seq analysis relative to control cells"}, "[26]": {"target": "Histone-lysine N-methyltransferase EZH2 (Mus musculus) (UniProt Q61188)", "test": "Inhibition of EZH2 in mouse B16-F1 migrating cells assessed as fold change in H3K27me3-buffered regulated Slc3a2-mRNA expression at 3 uM measured by ChIP-seq analysis relative to control cells"}, "[27]": {"target": "Histone-lysine N-methyltransferase EZH2 (Mus musculus) (UniProt Q61188)", "test": "Inhibition of EZH2 in mouse B16-F1 migrating cells assessed as fold change in H3K27me3-buffered regulated Ppargc1a-mRNA expression at 3 uM measured by ChIP-seq analysis relative to control cells"}, "[28]": {"target": "Histone-lysine N-methyltransferase EZH2 (Mus musculus) (UniProt Q61188)", "test": "Inhibition of EZH2 in mouse B16-F1 migrating cells assessed as fold change in H3K27me3-buffered regulated Aspm-mRNA expression at 3 uM measured by ChIP-seq analysis relative to control cells"}, "[29]": {"target": "Histone-lysine N-methyltransferase EZH2 (Mus musculus) (UniProt Q61188)", "test": "Inhibition of EZH2 in mouse B16-F1 migrating cells assessed as fold change in H3K27me3-buffered regulated Vgll3-mRNA expression at 3 uM measured by ChIP-seq analysis relative to control cells"}, "[30]": {"target": "Histone-lysine N-methyltransferase EZH2 (Mus musculus) (UniProt Q61188)", "test": "Inhibition of EZH2 in mouse B16-F1 migrating cells assessed as fold change in H3K27me3-buffered regulated Stard13-mRNA expression at 3 uM measured by ChIP-seq analysis relative to control cells"}}, "note": "Further values from the same series stand in other lists.", "data": [{"smiles": "OC[C@H]1O[C@@H](n2cnc3cc(Cl)c(Cl)cc32)[C@H](O)[C@@H]1O", "values": [{"measurement": "log2FC", "setting": "[1]", "value": -0.88}, {"measurement": "log2FC", "setting": "[2]", "value": -0.54}, {"measurement": "log2FC", "setting": "[3]", "value": 0.41}, {"measurement": "log2FC", "setting": "[4]", "value": -0.8}, {"measurement": "log2FC", "setting": "[5]", "value": -0.83}, {"measurement": "log2FC", "setting": "[6]", "value": -0.68}, {"measurement": "log2FC", "setting": "[7]", "value": -0.46}, {"measurement": "log2FC", "setting": "[8]", "value": 0.56}, {"measurement": "log2FC", "setting": "[9]", "value": 0.44}, {"measurement": "log2FC", "setting": "[10]", "value": 0.62}, {"measurement": "log2FC", "setting": "[11]", "value": -0.44}, {"measurement": "log2FC", "setting": "[12]", "value": 0.39}, {"measurement": "log2FC", "setting": "[13]", "value": 1.15}, {"measurement": "log2FC", "setting": "[14]", "value": 0.75}, {"measurement": "log2FC", "setting": "[15]", "value": 0.53}, {"measurement": "log2FC", "setting": "[16]", "value": -0.82}]}, {"smiles": "CCCc1cc(C)[nH]c(=O)c1CNC(=O)c1cc(-c2ccnc(N3CCN(C)CC3)c2)cc2c1cnn2C(C)C", "values": [{"measurement": "log2FC", "setting": "[17]", "value": -0.45}, {"measurement": "log2FC", "setting": "[18]", "value": 0.43}, {"measurement": "log2FC", "setting": "[19]", "value": 0.4}, {"measurement": "log2FC", "setting": "[20]", "value": 0.47}, {"measurement": "log2FC", "setting": "[21]", "value": -0.59}, {"measurement": "log2FC", "setting": "[22]", "value": -0.51}, {"measurement": "log2FC", "setting": "[23]", "value": -0.84}, {"measurement": "log2FC", "setting": "[24]", "value": -0.9}, {"measurement": "log2FC", "setting": "[25]", "value": -0.06}, {"measurement": "log2FC", "setting": "[26]", "value": 0.5}, {"measurement": "log2FC", "setting": "[27]", "value": 0.66}, {"measurement": "log2FC", "setting": "[28]", "value": -0.42}, {"measurement": "log2FC", "setting": "[29]", "value": -0.52}, {"measurement": "log2FC", "setting": "[30]", "value": -0.38}]}]}
